This note sets out measurements from PMC5428976.

By UniProt entry, the sequences of proteins in these tests, tags left out. Where a name states a change or a piece, a line headed by the entry shows the natural chain unless it says otherwise.
UniProt Q8TEB1: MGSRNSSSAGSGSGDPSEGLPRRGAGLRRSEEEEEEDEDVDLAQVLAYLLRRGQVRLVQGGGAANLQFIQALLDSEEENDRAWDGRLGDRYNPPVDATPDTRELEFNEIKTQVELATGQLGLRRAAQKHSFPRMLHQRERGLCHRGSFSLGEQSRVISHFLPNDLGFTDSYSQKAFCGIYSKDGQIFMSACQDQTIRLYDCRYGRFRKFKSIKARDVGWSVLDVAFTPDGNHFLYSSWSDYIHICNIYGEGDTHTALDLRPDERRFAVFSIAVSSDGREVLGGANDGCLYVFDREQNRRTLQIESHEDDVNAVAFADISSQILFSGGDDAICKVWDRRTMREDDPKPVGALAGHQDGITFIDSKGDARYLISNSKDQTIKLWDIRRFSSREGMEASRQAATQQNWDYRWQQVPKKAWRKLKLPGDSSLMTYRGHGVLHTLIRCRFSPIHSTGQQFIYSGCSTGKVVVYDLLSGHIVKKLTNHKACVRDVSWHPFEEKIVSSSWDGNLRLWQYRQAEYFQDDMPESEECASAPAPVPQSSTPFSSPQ
UniProt Q13619: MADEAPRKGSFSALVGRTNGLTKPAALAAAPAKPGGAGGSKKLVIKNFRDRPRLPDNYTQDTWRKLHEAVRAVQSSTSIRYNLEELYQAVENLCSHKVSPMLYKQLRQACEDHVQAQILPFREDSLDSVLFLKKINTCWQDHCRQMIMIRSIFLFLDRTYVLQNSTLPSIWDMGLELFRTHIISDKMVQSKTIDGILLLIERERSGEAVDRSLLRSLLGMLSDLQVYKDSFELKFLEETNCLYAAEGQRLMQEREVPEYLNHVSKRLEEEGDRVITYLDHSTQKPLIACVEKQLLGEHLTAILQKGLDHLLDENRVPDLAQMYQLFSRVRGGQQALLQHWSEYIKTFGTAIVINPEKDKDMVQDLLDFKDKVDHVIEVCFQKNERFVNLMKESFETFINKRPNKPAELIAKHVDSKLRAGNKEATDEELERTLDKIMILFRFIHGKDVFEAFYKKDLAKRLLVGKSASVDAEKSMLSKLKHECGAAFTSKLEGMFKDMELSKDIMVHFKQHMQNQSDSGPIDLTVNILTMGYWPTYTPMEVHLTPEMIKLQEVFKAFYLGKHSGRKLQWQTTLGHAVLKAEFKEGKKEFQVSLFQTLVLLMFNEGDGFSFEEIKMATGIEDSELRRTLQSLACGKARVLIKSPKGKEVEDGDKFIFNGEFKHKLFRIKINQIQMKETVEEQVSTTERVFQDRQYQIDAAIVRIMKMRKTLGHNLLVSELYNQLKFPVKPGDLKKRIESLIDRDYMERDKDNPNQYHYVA
UniProt Q16531: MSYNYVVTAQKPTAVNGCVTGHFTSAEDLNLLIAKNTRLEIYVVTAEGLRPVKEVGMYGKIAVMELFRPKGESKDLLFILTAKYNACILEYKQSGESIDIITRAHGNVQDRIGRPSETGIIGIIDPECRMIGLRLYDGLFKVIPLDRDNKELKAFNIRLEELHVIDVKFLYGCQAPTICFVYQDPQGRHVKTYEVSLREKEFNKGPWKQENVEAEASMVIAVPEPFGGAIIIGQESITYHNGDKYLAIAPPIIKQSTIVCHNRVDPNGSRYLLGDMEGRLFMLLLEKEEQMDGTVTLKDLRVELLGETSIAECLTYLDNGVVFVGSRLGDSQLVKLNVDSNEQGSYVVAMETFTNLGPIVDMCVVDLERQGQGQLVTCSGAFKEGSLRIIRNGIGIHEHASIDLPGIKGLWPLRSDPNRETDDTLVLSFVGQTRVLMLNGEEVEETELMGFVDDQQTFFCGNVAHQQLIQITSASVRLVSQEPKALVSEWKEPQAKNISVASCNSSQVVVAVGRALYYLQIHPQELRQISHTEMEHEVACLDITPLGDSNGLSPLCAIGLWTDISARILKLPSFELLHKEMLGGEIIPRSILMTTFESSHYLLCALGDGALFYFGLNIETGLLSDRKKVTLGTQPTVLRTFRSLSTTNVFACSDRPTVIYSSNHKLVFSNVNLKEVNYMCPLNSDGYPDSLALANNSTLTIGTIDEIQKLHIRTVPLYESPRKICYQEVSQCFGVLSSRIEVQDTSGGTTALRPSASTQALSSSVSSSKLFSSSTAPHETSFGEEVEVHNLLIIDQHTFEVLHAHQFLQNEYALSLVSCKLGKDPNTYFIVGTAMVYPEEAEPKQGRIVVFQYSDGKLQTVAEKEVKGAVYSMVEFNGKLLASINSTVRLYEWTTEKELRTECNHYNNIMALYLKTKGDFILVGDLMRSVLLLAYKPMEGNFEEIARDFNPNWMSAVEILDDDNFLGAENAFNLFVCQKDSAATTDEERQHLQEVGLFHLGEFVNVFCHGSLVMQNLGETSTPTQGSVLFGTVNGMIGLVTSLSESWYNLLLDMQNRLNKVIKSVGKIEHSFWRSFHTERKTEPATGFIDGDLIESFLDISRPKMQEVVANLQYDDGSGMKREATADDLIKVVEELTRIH
UniProt Q14145: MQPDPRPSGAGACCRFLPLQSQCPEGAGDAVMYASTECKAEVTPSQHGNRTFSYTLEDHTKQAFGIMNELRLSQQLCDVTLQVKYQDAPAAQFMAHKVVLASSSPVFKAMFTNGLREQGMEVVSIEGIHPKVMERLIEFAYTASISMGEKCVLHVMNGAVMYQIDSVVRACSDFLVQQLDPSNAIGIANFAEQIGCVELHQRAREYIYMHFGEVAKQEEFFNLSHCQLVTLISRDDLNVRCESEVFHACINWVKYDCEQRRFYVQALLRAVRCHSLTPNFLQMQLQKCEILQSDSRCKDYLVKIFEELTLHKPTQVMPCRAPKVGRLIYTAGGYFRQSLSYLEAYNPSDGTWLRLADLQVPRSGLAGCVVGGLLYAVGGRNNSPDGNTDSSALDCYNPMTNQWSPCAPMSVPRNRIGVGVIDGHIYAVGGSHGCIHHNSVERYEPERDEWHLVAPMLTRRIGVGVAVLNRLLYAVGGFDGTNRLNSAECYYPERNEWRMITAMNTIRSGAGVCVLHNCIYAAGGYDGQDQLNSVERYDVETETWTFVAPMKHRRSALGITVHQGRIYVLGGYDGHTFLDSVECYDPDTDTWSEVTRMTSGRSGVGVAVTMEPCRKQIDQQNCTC
UniProt Q16236: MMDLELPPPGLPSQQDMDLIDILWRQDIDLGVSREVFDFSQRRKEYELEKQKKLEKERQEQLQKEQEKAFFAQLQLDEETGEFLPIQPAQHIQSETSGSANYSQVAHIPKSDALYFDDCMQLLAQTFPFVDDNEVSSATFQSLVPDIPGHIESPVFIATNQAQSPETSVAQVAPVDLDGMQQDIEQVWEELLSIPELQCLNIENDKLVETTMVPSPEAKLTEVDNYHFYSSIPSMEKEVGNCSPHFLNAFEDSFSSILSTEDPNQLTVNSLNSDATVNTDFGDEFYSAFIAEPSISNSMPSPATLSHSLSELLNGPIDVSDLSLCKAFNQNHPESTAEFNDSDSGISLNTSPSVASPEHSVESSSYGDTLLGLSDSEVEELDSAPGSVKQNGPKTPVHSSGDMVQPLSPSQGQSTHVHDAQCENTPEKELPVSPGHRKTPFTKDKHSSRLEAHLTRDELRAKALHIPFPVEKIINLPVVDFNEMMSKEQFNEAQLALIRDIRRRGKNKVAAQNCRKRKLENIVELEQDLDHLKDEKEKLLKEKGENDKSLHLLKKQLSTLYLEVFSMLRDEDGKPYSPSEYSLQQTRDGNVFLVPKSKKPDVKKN

No constants are given. Whether binding was seen depends on the method and setting. In cells and extracts the contact can be indirect. Binding calls can cover weak binding; strength is not graded here.

Holding throughout (assay): co-IP; HEK-293T cells transiently transfected, 24 h, no MG-132; lysed in 0.5% CHAPS buffer (10mM Tris/Cl pH 7.5, 150mM NaCl, 0.5mM EDTA); GFP:WDR23 (or GFP) precipitated with magnetic agarose GFP Trap beads, 1 hour at 4°C, three washes; Western blot; some cells treated with 250μM H2O2
Test [1] has as its target GFP:WDR23 isoform 2 (H306Y) (human) (UniProt Q8TEB1).
Test [2] has as its target GFP:WDR23 isoform 2 (human) (UniProt Q8TEB1).
For test [3], the target named is GFP:WDR23 isoform 1 (human) (UniProt Q8TEB1).

As to CUL4A (from UniProt Q13619 1-759), the binding entry in test [1], in test [2] and in test [3] was “binds” in each case.

With DDB1 (from UniProt Q16531 1-1140), the binding entry in test [1], in test [2] and in test [3] was “binds” throughout.

KEAP1 (from UniProt Q14145 1-624): the binding result in test [2] and in test [3] was “no binding” each time.

For the substance NRF2(ΔNeh2) (from UniProt Q16236), the binding entry in test [2] and in test [3] was “no binding” each time.

On to NRF2ΔNeh1 (from UniProt Q16236), for which the binding result in test [2] and in test [3] was “binds” each time.

Turning to NRF2ΔNeh3 (from UniProt Q16236), the binding result in test [2] and in test [3] was “binds” each time.

For the substance NRF2ΔNeh4,5 (from UniProt Q16236), the binding entry in test [2] and in test [3] was “binds” in each case.

In the case of NRF2ΔNeh6 (from UniProt Q16236), the binding result in test [2] and in test [3] was “binds” throughout.
